Experimental data taken from the supplement of paper PMC4604168 (melanoma cell lines).
Some of the results follow. Single values are uncertain, as repeats are few or missing.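 Imaging used 1,536-well plates; nuclei positive for cleaved PARP by antibody were divided by total DNA-stained nuclei to yield the apoptosis fraction. Doses for screening kept most cells viable, and cell lines differ markedly in resting and induced cleaved-PARP levels.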

Assays:
Experiment in all cases: cleaved PARP positive nuclei fraction relative to DMSO control; melanoma cells; higher = more apoptosis
Conditions in all cases: library dose: low library concentration; 72 h
WM115 = test system: WM115
WM1716 = test system: WM1716
WM1745 = test system: WM1745
WM3526 = test system: WM3526
WM3619 = test system: WM3619
WM451Lu = test system: WM451Lu

Structure (SMILES) | cleaved PARP positive nuclei fraction (WM115) | cleaved PARP positive nuclei fraction (WM1716) | cleaved PARP positive nuclei fraction (WM1745) | cleaved PARP positive nuclei fraction (WM3526) | cleaved PARP positive nuclei fraction (WM3619) | cleaved PARP positive nuclei fraction (WM451Lu)
CC1(C)CCC(c2ccc(Cl)cc2)=C(CN2CCN(c3ccc(C(=O)NS(=O)(=O)c4ccc(N[C@H](CCN5CCOCC5)CSc5ccccc5)c(S(=O)(=O)C(F)(F)F)c4)cc3)CC2)C1 + CCc1ccc(CCOc2ccc(CC3SC(=O)NC3=O)cc2)nc1 [pioglitazone] (first compound 0.4 µM, partner dose 2 µM) | 177% | 206% | 583% | 50.9% | 121% | 575%
NC(=O)c1ccc(N(C(N)=O)c2c(F)cccc2F)nc1-c1ccc(F)cc1F + COc1ccc(Cl)c(Nc2nc3ccccc3nc2NS(=O)(=O)c2cccc(NC(=O)C(C)(C)N)c2)c1 [XL147] (first compound 0.4 µM, partner dose 0.8 µM) | 86.3% | 62.4% | 96.7% | 304% | 94.4% | 195%
Cn1cnc2c(F)c(Nc3ccc(Br)cc3Cl)c(C(=O)NOCCO)cc21 [selumetinib] + C=CCNC1=C2C[C@@H](C)C[C@H](OC)[C@H](O)[C@@H](C)/C=C(\C)[C@H](OC(N)=O)[C@@H](OC)/C=C\C=C(/C)C(=O)NC(=CC1=O)C2=O [Tanespimycin] (first compound 0.015 µM, partner dose 0.002 µM) | 190% | 135% | 103% | 115% | 113% | 62.9%
Cn1cnc2c(F)c(Nc3ccc(Br)cc3Cl)c(C(=O)NOCCO)cc21 [selumetinib] + Cc1nc(Nc2ncc(C(=O)Nc3c(C)cccc3Cl)s2)cc(N2CCN(CCO)CC2)n1 [dasatanib] (first compound 0.015 µM, partner dose 0.004 µM) | 321% | 34.1% | 117% | 55.1% | 127% | 81%
CCCCCCCCc1ccc(CCC(N)(CO)CO)cc1 [fingolimod] + Cc1cc([N+](=O)[O-])ccc1NS(=O)(=O)c1cc(Cl)ccc1Cl [FH535] (first compound 2 µM, partner dose 1 µM) | 188% | 144% | 95.5% | 242% | 69.8% | 56%
CS(=O)(=O)c1ccc(C(=O)Nc2ccc(Cl)c(-c3ccccn3)c2)c(Cl)c1 [vismodegib] + COC(=O)c1sccc1S(=O)(=O)Nc1ccc(Nc2ccccc2)cc1OC [GSK0660] (first compound 1 µM, partner dose 1 µM) | 163% | 50.2% | 89% | 69.6% | 115% | 66.4%
CC1(C)CCC(c2ccc(Cl)cc2)=C(CN2CCN(c3ccc(C(=O)NS(=O)(=O)c4ccc(N[C@H](CCN5CCOCC5)CSc5ccccc5)c(S(=O)(=O)C(F)(F)F)c4)cc3)CC2)C1 + CCN(CC)CCNC(=O)c1c(C)[nH]c(/C=C2\C(=O)Nc3ccc(F)cc32)c1C [sunitinib] (first compound 0.4 µM, partner dose 0.4 µM) | 662% | 142% | 1040% | 69.2% | 139% | 68.4%
NC(=O)c1ccc(N(C(N)=O)c2c(F)cccc2F)nc1-c1ccc(F)cc1F + CC(C)(C)c1cnc(CSc2cnc(NC(=O)C3CCNCC3)s2)o1 [SNS-032] (first compound 0.4 µM, partner dose 0.01 µM) | 73.2% | 256% | 97.3% | 53.5% | 87.5% | 24%
NC(=O)c1ccc(N(C(N)=O)c2c(F)cccc2F)nc1-c1ccc(F)cc1F + CS(=O)(=O)CCNCc1ccc(-c2ccc3ncnc(Nc4ccc(OCc5cccc(F)c5)c(Cl)c4)c3c2)o1 [lapatinib] (first compound 0.4 µM, partner dose 0.8 µM) | 56.9% | 91.1% | 99.7% | 81% | 74.9% | 98.6%
NC(=O)c1ccc(N(C(N)=O)c2c(F)cccc2F)nc1-c1ccc(F)cc1F + Nc1ccn([C@@H]2O[C@H](CO)[C@@H](O)C2(F)F)c(=O)n1 [gemcitabine] (first compound 0.4 µM, partner dose 0.0004 µM) | 105% | 102% | 155% | 139% | 126% | 39.4%
Cn1cnc2c(F)c(Nc3ccc(Br)cc3Cl)c(C(=O)NOCCO)cc21 [selumetinib] + Cc1cc(Nc2cc(N3CCN(C)CC3)nc(/C=C/c3ccccc3)n2)n[nH]1 [ENMD2076] (first compound 0.015 µM, partner dose 0.04 µM) | 102% | 28.8% | 105% | 62.4% | 122% | 117%
CN(c1ncccc1CNc1nc(Nc2ccc3c(c2)CC(=O)N3)ncc1C(F)(F)F)S(C)(=O)=O + CNC(=O)c1cc(Oc2ccc(NC(=O)Nc3ccc(Cl)c(C(F)(F)F)c3)cc2)ccn1 [sorafenib] (first compound 0.08 µM, partner dose 0.4 µM) | 222% | 140% | 87.3% | 40.4% | 203% | 274%
CCN(CC)CCNC(=O)c1c(C)[nH]c(/C=C2\C(=O)Nc3ccc(F)cc32)c1C [sunitinib] + NCC(=O)Nc1ccc(-n2nc(C(F)(F)F)cc2-c2ccc3c(ccc4ccccc43)c2)cc1 [OSU03012] (first compound 0.4 µM, partner dose 1 µM) | 58.9% | 53.2% | 123% | 132% | 101% | 161%
CS(=O)(=O)c1ccc(C(=O)Nc2ccc(Cl)c(-c3ccccn3)c2)c(Cl)c1 [vismodegib] + CN(C)S(=O)(=O)c1ccc2c(c1)/C(=C/c1cc3c([nH]1)CCCC3)C(=O)N2 [SU6656] (first compound 1 µM, partner dose 0.4 µM) | 38.7% | 101% | 202% | 60% | 168% | 117%
CC1(C)CCC(c2ccc(Cl)cc2)=C(CN2CCN(c3ccc(C(=O)NS(=O)(=O)c4ccc(N[C@H](CCN5CCOCC5)CSc5ccccc5)c(S(=O)(=O)C(F)(F)F)c4)cc3)CC2)C1 + COC(=O)c1sccc1S(=O)(=O)Nc1ccc(Nc2ccccc2)cc1OC [GSK0660] (first compound 0.4 µM, partner dose 1 µM) | 128% | 139% | 900% | 71% | 150% | 113%
Cn1sc(=O)n(Cc2ccccc2)c1=O + COc1cc2ncnc(Nc3ccc(Oc4ccccc4)cc3)c2cc1OC [SrcI1] (first compound 0.4 µM, partner dose 2 µM) | 34% | 50.7% | 92.5% | 75.9% | 97.9% | 33.2%
CC1(C)CCC(c2ccc(Cl)cc2)=C(CN2CCN(c3ccc(C(=O)NS(=O)(=O)c4ccc(N[C@H](CCN5CCOCC5)CSc5ccccc5)c(S(=O)(=O)C(F)(F)F)c4)cc3)CC2)C1 + COc1ccc2c(c1)CCC1C2CCC2(C)C(NCCCCCCN3C(=O)C=CC3=O)CCC12 [U73122] (first compound 0.4 µM, partner dose 0.4 µM) | 135% | 214% | 845% | 70.8% | 112% | 97.9%
COc1ccc(C2=N[C@@H](c3ccc(Cl)cc3)[C@@H](c3ccc(Cl)cc3)N2C(=O)N2CCNC(=O)C2)c(OC(C)C)c1 [Nutlin-3] + CO[C@@H]1[C@H](N(C)C(=O)c2ccccc2)C[C@H]2O[C@]1(C)n1c3ccccc3c3c4c(c5c6ccccc6n2c5c31)C(=O)NC4 [Midostaurin] (first compound 0.1 µM, partner dose 0.08 µM) | 188% | 185% | 110% | 61.3% | 141% | 115%
CCN(CC)CCNC(=O)c1c(C)[nH]c(/C=C2\C(=O)Nc3ccc(F)cc32)c1C [sunitinib] + CS(=O)(=O)CCNCc1ccc(-c2ccc3ncnc(Nc4ccc(OCc5cccc(F)c5)c(Cl)c4)c3c2)o1 [lapatinib] (first compound 0.4 µM, partner dose 0.8 µM) | 77.3% | 54.8% | 100% | 192% | 66.1% | 448%
CS(=O)(=O)c1ccc(C(=O)Nc2ccc(Cl)c(-c3ccccn3)c2)c(Cl)c1 [vismodegib] + COc1ccc2c(c1)CCC1C2CCC2(C)C(NCCCCCCN3C(=O)C=CC3=O)CCC12 [U73122] (first compound 1 µM, partner dose 0.4 µM) | 112% | 62.7% | 90.1% | 113% | 82.4% | 37.2%
Cn1sc(=O)n(Cc2ccccc2)c1=O + Cn1c(=O)n(-c2ccc(C(C)(C)C#N)cc2)c2c3cc(-c4cnc5ccccc5c4)ccc3ncc21 [NVP-BEZ235] (first compound 0.4 µM, partner dose 0.004 µM) | 98.5% | 172% | 96% | 44.7% | 117% | 91.6%
COc1ccc(C2=N[C@@H](c3ccc(Cl)cc3)[C@@H](c3ccc(Cl)cc3)N2C(=O)N2CCNC(=O)C2)c(OC(C)C)c1 [Nutlin-3] + COc1ccc(Cl)c(Nc2nc3ccccc3nc2NS(=O)(=O)c2cccc(NC(=O)C(C)(C)N)c2)c1 [XL147] (first compound 0.1 µM, partner dose 0.8 µM) | 35.3% | 147% | 87.5% | 68.1% | 101% | 40%
NC(=O)c1ccc(N(C(N)=O)c2c(F)cccc2F)nc1-c1ccc(F)cc1F + CCCS(=O)(=O)Nc1ccc(F)c(C(=O)c2c[nH]c3ncc(Cl)cc23)c1F [PLX4720] (first compound 0.4 µM, partner dose 0.08 µM) | 202% | 58.3% | 112% | 67.6% | 105% | 91.4%

Fetched one by one from the list above:
Structure (SMILES) | cleaved PARP positive nuclei fraction (WM115) | cleaved PARP positive nuclei fraction (WM1716) | cleaved PARP positive nuclei fraction (WM1745) | cleaved PARP positive nuclei fraction (WM3526) | cleaved PARP positive nuclei fraction (WM3619) | cleaved PARP positive nuclei fraction (WM451Lu)
CC1(C)CCC(c2ccc(Cl)cc2)=C(CN2CCN(c3ccc(C(=O)NS(=O)(=O)c4ccc(N[C@H](CCN5CCOCC5)CSc5ccccc5)c(S(=O)(=O)C(F)(F)F)c4)cc3)CC2)C1 + CCc1ccc(CCOc2ccc(CC3SC(=O)NC3=O)cc2)nc1 [pioglitazone] (first compound 0.4 µM, partner dose 2 µM) | 177% | 206% | 583% | 50.9% | 121% | 575%
CS(=O)(=O)c1ccc(C(=O)Nc2ccc(Cl)c(-c3ccccn3)c2)c(Cl)c1 [vismodegib] + CN(C)S(=O)(=O)c1ccc2c(c1)/C(=C/c1cc3c([nH]1)CCCC3)C(=O)N2 [SU6656] (first compound 1 µM, partner dose 0.4 µM) | 38.7% | 101% | 202% | 60% | 168% | 117%
